Measured values from article PMC6884526.
Changes are numbered by the printed parent chain. No constants are given. Whether binding was seen depends on the method and setting. In cells and extracts the contact can be indirect. For some assays here: Binding calls can cover weak binding; strength is not graded here. Tags and fused reporters may be left off the sequences shown.

How the values were obtained:
GFP-Snapin-S50D = molecular target: T1, GFP-Snapin-S50D (UniProt P60192); assay: co-IP; heterologous, HEK293T lysate, lysis buffer without SDS; GFP-Snapin forms precipitated with anti-GFP magnetic beads
T1 sequence: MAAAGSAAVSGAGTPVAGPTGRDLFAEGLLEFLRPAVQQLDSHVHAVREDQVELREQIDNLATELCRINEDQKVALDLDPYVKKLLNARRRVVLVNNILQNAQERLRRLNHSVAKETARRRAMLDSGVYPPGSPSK

GFP-Snapin-S50A = molecular target: T2, GFP-Snapin-S50A (UniProt P60192); assay: as above
T2 sequence: T1 sequence with D50A

With “dynein intermediate chain (endogenous, HEK293T) (human (endogenous in HEK293T))” the binding (GFP-Snapin-S50D) was “no binding” and the binding (GFP-Snapin-S50A) was “binds”.
